PubChem BioAssay AID1259308, NCATS – 2017
Purpose: 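Candidate targets for better recombinant protein yield in mammalian cells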 (primary screen). System: human HEK293 embryonic kidney cells stably expressing firefly luciferase (HEK-CMV-Luc2-Hygro). Knock-down reagent: single siRNA against human genes, 0.8 pmol siRNA per well. Duration: 72 h. Detection: 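Reporter luminescence and viable-cell signal on separate replicate plates, given as percent of non-targeting control and median/MAD z-scores, plus per-cell luciferase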. Scale: total luciferase, z-score: higher = more reporter protein produced. Hit rule: 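Active when the median/MAD z-score for overall luciferase is greater than 3; a gene was taken forward for validation with new siRNAs if at least two of its three siRNAs passed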. Meaning of the calls: active = raised luciferase; inactive = no rise.
The whole screen tested about 59,000 reagents; below is a part drawn at random. About 1,510 of them (2.6%) were called active. 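Calls use total luciferase alone and ignore viability, so some active siRNAs may act by altering cell number.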 The numbers tell different reagents against one gene apart. Not all columns of the deposit are shown.

{"gene": "MTA3", "reagent no.": 1, "total luciferase, z-score": -0.0244, "Call": "inactive"}
{"gene": "MTA3", "reagent no.": 2, "total luciferase, z-score": 1.17, "Call": "inactive"}
{"gene": "MTA3", "reagent no.": 3, "total luciferase, z-score": -0.0346, "Call": "inactive"}
{"gene": "MTA3", "reagent no.": 4, "total luciferase, z-score": 0.64, "Call": "inactive"}
{"gene": "MTA3", "reagent no.": 5, "total luciferase, z-score": 0.545, "Call": "inactive"}
{"gene": "MTA3", "reagent no.": 6, "total luciferase, z-score": -0.565, "Call": "inactive"}
{"gene": "OR2H2", "reagent no.": 1, "total luciferase, z-score": 0.415, "Call": "inactive"}
{"gene": "OR2H2", "reagent no.": 2, "total luciferase, z-score": -1.6, "Call": "inactive"}
{"gene": "OR2H2", "reagent no.": 3, "total luciferase, z-score": 0.784, "Call": "inactive"}
{"gene": "TBC1D9B", "reagent no.": 1, "total luciferase, z-score": -0.369, "Call": "inactive"}
{"gene": "TBC1D9B", "reagent no.": 2, "total luciferase, z-score": -0.103, "Call": "inactive"}
{"gene": "TBC1D9B", "reagent no.": 3, "total luciferase, z-score": 0.351, "Call": "inactive"}

Part of the list above in another layout.
gene,reagent no.,"total luciferase, z-score",Call
MTA3,6,-0.565,inactive
OR2H2,1,0.415,inactive
